Results are given in words; binding and its absence hold for the method and conditions named. Binding seen in cells or lysates may run through a third protein. Some entries that bind do so weakly or less than the wild type.
Target: Flag-HOIP (human) (UniProt Q96EP0)
Assay: co-IP; HEK 293T cells co-transfected with Myc-tagged candidate and Flag-HOIP or Flag-OTULIN; lysis in 50 mM Tris-HCl pH 7.4, 150 mM NaCl, 5 mM EDTA, 1% Triton X-100; protein A/G agarose, 4 C overnight; immunoblot

Sequences of proteins named here, by UniProt entry; tags and fusion partners are left off.
UniProt Q8IZP0: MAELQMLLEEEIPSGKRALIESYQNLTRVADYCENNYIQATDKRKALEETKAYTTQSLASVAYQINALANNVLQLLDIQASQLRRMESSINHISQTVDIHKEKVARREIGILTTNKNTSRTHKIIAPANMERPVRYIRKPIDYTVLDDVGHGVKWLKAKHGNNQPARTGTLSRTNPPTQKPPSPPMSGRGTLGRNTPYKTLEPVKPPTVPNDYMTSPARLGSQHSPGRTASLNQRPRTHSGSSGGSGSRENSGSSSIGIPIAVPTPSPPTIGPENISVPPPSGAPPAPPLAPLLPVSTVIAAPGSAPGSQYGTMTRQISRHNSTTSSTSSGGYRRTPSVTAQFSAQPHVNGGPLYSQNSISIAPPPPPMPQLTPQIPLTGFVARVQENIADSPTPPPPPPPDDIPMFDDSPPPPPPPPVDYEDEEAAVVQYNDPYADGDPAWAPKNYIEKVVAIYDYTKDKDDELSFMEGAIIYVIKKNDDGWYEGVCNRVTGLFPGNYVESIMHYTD
UniProt Q9NYB9: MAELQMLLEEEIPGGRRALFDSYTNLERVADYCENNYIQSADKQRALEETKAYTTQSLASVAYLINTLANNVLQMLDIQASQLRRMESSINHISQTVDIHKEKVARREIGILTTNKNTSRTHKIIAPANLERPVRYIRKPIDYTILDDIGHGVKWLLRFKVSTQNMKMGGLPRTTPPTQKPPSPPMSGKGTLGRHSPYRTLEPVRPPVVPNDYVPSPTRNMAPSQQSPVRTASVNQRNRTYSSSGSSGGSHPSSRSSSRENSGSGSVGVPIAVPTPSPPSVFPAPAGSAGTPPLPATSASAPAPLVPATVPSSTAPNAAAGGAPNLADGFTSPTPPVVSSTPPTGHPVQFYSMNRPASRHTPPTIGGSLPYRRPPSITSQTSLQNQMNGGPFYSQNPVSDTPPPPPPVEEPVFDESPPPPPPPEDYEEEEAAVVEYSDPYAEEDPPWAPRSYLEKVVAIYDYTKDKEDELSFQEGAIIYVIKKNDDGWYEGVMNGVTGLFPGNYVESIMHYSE

| binding | Substance |
| --- | --- |
| binds | Myc-ABI1 (from UniProt Q8IZP0 1-508) |
| binds | Myc-ABI2 (from UniProt Q9NYB9 1-513) |
